Measured values reported in PubChem BioAssay AID1458 (National Center for Advancing Translational Sciences (NCATS), 2008).
Screen size: about 210,000 compounds; about 5,900 (2.8%) were called active. Inconclusive results (about 5%) are left out. Calls come from the whole dose curve; as a rule, active = well fitted activation curve with a large enough effect; inconclusive = small, poorly fitted or top-dose-only effect; inactive = no such curve, though single readings can be large or run the other way. The list shows a part of the results, in another mix than the full data. Entries without a call were filed so in the source.

Assay: qHTS Assay for Enhancers of SMN2 Splice Variant Expression; note: nearly all actives have a fitted effect of over 55% in size; for activity change, positive = activation: % of control where 0% means no effect
Conditions: HEK293 SMN2-luciferase splicing reporter, luminescence, 30-36 h; activity change, positive = activation: at 46.1 µM (top of the series) unless noted
Method in brief: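 HEK293 cells carry an SMN2 […]–luciferase reporter in which exon 7 inclusion puts luciferase in frame. Cells were plated 10-12 h before compound addition, then incubated 30-36 h at 37C. ONE-Glo luminescence was read; sodium butyrate at 4.5 mM final served as control.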
Potency is the fitted concentration of half-maximal effect.

Row | SMILES | activity change, positive = activation | Potency
1 | Fc1ccc(C(c2nnnn2Cc2ccco2)N2CCN(C3CCCCC3)CC2)cc1 (centres undefined) | 53.7% | 
2 | O=C(Nc1ccc(Cl)cc1)c1cc(S(=O)(=O)N2CCOCC2)cs1 | inactive: -64.6% | 
3 | O=C(CSc1ccccc1C(=O)NCc1ccccc1)NC1CCCCCCC1 | inactive: -36.7% | 
4 | O=C(Nc1ccc2c(c1)CCC2)c1ccccc1Br | 448% | 
5 | CN(C)c1ccc(N/C=C/C(=O)c2ccco2)cc1 | 49.9% | 
6 | Cc1nnc(N2CCN(Cc3ccccc3)CC2)[nH]c1=O | 31% | 
7 | Cc1ccc(NC(=O)Cn2c(=O)n(CCC(=O)NC3CCN(Cc4ccccc4)CC3)c(=O)c3ccccc32)cc1 | -37.2% | 
8 | Cc1ccc(C)n1NC(=O)c1ccccc1Cl | 24.3% | 
9 | O=C(CCC1N=C2c3ccccc3N=C(SCc3ccccc3Cl)N2C1=O)NCCc1ccccc1 (centres undefined) | 40% | 
10 | Cc1ccc2nc(-c3ccc(Cl)c(NC(=O)c4ccc5c(c4)OCCO5)c3)oc2c1 | inactive: -34.4% | 
11 | O=C(CSc1nnc(-c2ccc(O)cc2)n1Cc1ccco1)c1cccs1 | 33.8% | 
12 | CC(C)C(c1nnnn1C(C)(C)C)N1CCC(Cc2ccccc2)CC1 (centres undefined) | inactive: -48.8% | 
13 | Cc1ccc(-c2nnc(NCc3nc4ccccc4[nH]3)c3ccccc23)cc1S(=O)(=O)N(C)C | inactive: -60.3% | 
14 | O=C(CCCN1C(=O)CCC1=O)Nc1cccc(C(F)(F)F)c1 | -9.86% | 
15 | Cc1c(C(=O)O)cnc2cc(-c3ccc(Cl)cc3)nn12 |  | active: 11.2 µM
16 | O=C(NC1CCCCCC1)C1c2ccccc2C(=O)N1Cc1ccc(F)cc1 (centres undefined) | 41.4% | 
17 | O=C(N/N=C/c1ccc2c(c1)OCO2)c1ccc(Br)o1 |  | active: 12.6 µM
18 | COC(=O)c1ccc(OCC2c3cc(OC)c(OC)cc3CCN2C(C)=O)cc1 (centres undefined) | inactive: -37% | 
19 | COc1ccc2sc(SCCCS(=O)(=O)O)[n+](CCCS(=O)(=O)[O-])c2c1 | 26.7% | 
20 | O=c1o[nH]c(-c2ccccc2)c1C1=NCCCCC1 | 30.4% | 
21 | CC(=O)N(/N=C1\Sc2ccccc2C1=O)c1ccc(C)cc1C | inactive: -67.5% | 
22 | COc1cc(/C=N/N=C2/NC(=O)C(CC(=O)O)S2)ccc1OCc1ccc(Cl)cc1 (centres undefined) |  | active: 11.2 µM

Row | SMILES | activity change, positive = activation | Potency
23 | Cc1ccc(S(=O)(=O)Nc2ccc3nc(C)sc3c2)cc1 | inactive: -51.8% | 
24 | O=C(NCCCCc1ccccc1)c1ccc(Br)o1 | -40.1% | 
25 | Cc1ccc(/C=c2\sc3nc(-c4ccccc4Br)nn3c2=O)o1 | 34.9% | 
26 | O=C(NCCc1csc(-c2ccccc2)n1)c1c(F)cccc1Cl | inactive: -36.3% | 
27 | O=C(O)c1cccc(C(=O)Nc2cccc(NC(=O)C3CCCO3)c2)c1 (centres undefined) | 38.2% | 
28 | CCOC(=O)CN1N=C(/C=C/c2ccc(OC)cc2)CCC1=O | 31.3% | 
29 | COc1cc(/C(C)=N/NC(=O)CSc2nncn2C)ccc1OCc1ccccc1Cl | 38.9% | 
30 | COc1cc(NS(=O)(=O)c2ccc(NC(=O)C34CC5CC(CC(C5)C3)C4)cc2)ncn1 | 40% | 
31 | Cc1ccnc(NC2OC(=O)c3ccccc32)c1 (centres undefined) | 37.2% | 
32 | Fc1ccc(NC(=S)NNc2ncc(C(F)(F)F)cc2Cl)c(F)c1 | inactive: -60% | 
33 | CCOc1ccc2nc(SCc3ccccc3C#N)sc2c1 |  | active: 11.2 µM
34 | O=C(NCCc1c[nH]c2ccccc12)C(=O)NCC(c1cccnc1)N1CCN(c2ccccc2)CC1 (centres undefined) | inactive: -90.4% | 
35 | N#CC(C#N)=C1C=CC=CN1/C(=C\c1ccccc1Cl)C(=O)c1ccccc1 | inactive: -117% | 
36 | COc1ccc(C(=O)N2c3ccccc3C(C)(c3ccc(Cl)cc3)CC2(C)C)cc1 (centres undefined) | inactive: -49.9% | 
37 | O=C(Nc1cccc(Cl)c1)O/N=C\c1ccncc1 | 30.1% | 
38 | O=C(CC(=O)c1cc(Cl)ccc1O)c1ccccc1 | inactive: -57% | 
39 | CCOc1ccc(-c2nnc3sc(COc4ccccc4)nn23)cc1 | 55.2% | 
40 | COC(=O)[C@H](C)NC(=O)Nc1ccccc1F | 33.8% | 
41 | CC(C)c1cc(C(=O)Nc2cccnc2)no1 |  | active: 35.5 µM
42 | Cc1ccccc1NC(=O)CN1C(=O)S/C(=C\c2cccn2-c2cccc(C(=O)O)c2)C1=O | 32.9% | 
43 | O=C(Nc1ncc(S(=O)(=O)c2ccc([N+](=O)[O-])cc2)s1)c1cccc2ccccc12 | -68% | 
44 | COc1cc(C(=O)Nc2nc(C)c(Cc3ccc4c(c3)OCO4)s2)cc(OC)c1OC | -45.2% | 

Single entries from the entries so far.
In Potency, CC(C)c1cc(C(=O)Nc2cccnc2)no1 has the entry active: 35.5 µM
In activity change, positive = activation, CCOc1ccc(-c2nnc3sc(COc4ccccc4)nn23)cc1 has the entry 55.2%
In activity change, positive = activation, O=C(O)c1cccc(C(=O)Nc2cccc(NC(=O)C3CCCO3)c2)c1 (centres undefined) has the entry 38.2%
In activity change, positive = activation, CN(C)c1ccc(N/C=C/C(=O)c2ccco2)cc1 has the entry 49.9%

Remaining list, next part:

Row | SMILES | activity change, positive = activation | Potency
45 | CN(C)c1nc(Oc2ccc(N)cc2)nc(N(C)C)n1 | 30.1% | 
46 | O=C1NC(=O)/C(=C\c2ccc(Cl)nc2)S1 | 76.6% | 
47 | Cc1ccc(NC(=O)Nc2ccc(Cl)cn2)cc1 |  | active: 11.2 µM
48 | Cc1nc(CN2CCN(C(=O)c3ccc(Br)cc3)CC2)cs1 | 32.3% | 
49 | C=CCN1C(=O)S/C(=C\c2ccc(N3CCOCC3)cc2C)C1=O | 39.9% | 
50 | O=C(O)c1n[nH]c2c1CCCC2 | 48.6% | 
51 | Nc1ccc(C2=Nc3cccc4cccc(c34)N2)cc1 | -43.8% | 
52 | CCOc1ccc(C(=O)Nc2ccc(N3CCN(C)CC3)cc2)cc1Br | inactive: -6.05% | 
53 | COc1cccc(NC(=O)c2ccc(C(=O)c3ccccc3)o2)c1 |  | active: 20 µM
54 | Cc1sc(NC(=O)COc2ccccc2)c(C#N)c1C | 58.3% | 
55 | COCCn1c(-c2ccc(Cl)cc2Cl)nc2c(c(=O)c3ccccc3n2C)c1=O | 33.3% | 
56 | CC(C)c1cc(NC(=O)CCl)on1 | -80.9% | 
57 | O=C1CC(c2ccccc2)CC2=C1CN(C1CCCCC1)CN2 (centres undefined) | 47.1% | 
58 | CN1CCN(CC2(O)CCN(S(=O)(=O)c3ccc(Cl)cc3)CC2)CC1 | inactive: -8.64% | 
59 | O=C(Oc1ccc(-c2nnco2)cc1)N1CCCCC1 | 43.2% | 
60 | Cc1ccc(C(=O)COc2ccccc2C(=O)Nc2ccccc2)cc1 | inactive: -46.4% | 
61 | COc1ccc(N(C(=O)Nc2ccc(Cl)cc2)C2=NCCC2)cc1 | 35% | 
62 | O=C(Nc1ccccc1NC(=O)NC1CCCCC1)NC1CCCCC1 | inactive: -78.2% | 
63 | CCOC(=O)c1sc2nc(C)nc(SCC(=O)NC(C)CCc3ccccc3)c2c1C (centres undefined) | -19.4% | 
64 | COc1ccc(N2CCN(C(=O)Cn3nnc(-c4ccc(N(C)C)cc4)n3)CC2)cc1 | inactive: -42.8% | 
65 | O=C(Nc1ccc2oc(-c3ccccc3)nc2c1)c1ccccc1F |  | active: 12.6 µM
66 | O=c1c(Cl)c(NCc2ccccc2)cnn1C12CC3CC(CC(C3)C1)C2 | -76.3% | 

Arranged by SMILES length (rising): 3 of the compounds above.
Row | SMILES | activity change, positive = activation | Potency
65 | O=C(Nc1ccc2oc(-c3ccccc3)nc2c1)c1ccccc1F |  | active: 12.6 µM
60 | Cc1ccc(C(=O)COc2ccccc2C(=O)Nc2ccccc2)cc1 | inactive: -46.4% | 
61 | COc1ccc(N(C(=O)Nc2ccc(Cl)cc2)C2=NCCC2)cc1 | 35% | 

The results go on:

Row | SMILES | activity change, positive = activation | Potency
67 | COc1cnc(SCCC(F)=C(F)F)[nH]c1=O | 31.5% | 
68 | COc1ccc(-n2nc(C(=O)NCC(=O)NCC3CCCO3)c3ccccc3c2=O)cc1 (centres undefined) | 31.2% | 
69 | CN(C)c1ccc(-c2cc(NCc3ccccc3)ncn2)cc1 |  | active: 0.794 µM
70 | CCCCOc1ccc(C(=O)N2CC(C)OC(C)C2)cc1 (centres undefined) | -50.4% | 
71 | CCOC(=O)c1sc(NC(=O)c2cccc(S(=O)(=O)N3c4ccccc4CC3C)c2)cc1C (centres undefined) | 16.9% | 
72 | CC(C)CC(=O)Nc1ccc(Oc2ccc(NC(=O)CC(C)C)cc2)cc1 | 39.4% | 
73 | Cc1nc(NC(=O)c2ccc3c(c2)OCO3)ccc1Br |  | active: 11.2 µM
74 | COC(=O)c1ccc(NC(=O)c2ccc(N(C)S(C)(=O)=O)cc2)cc1 | -98% | 
75 | CCn1c(COc2cccc(C)c2)nnc1SCC(=O)Nc1cccc(C(=O)O)c1 | 32.5% | 
76 | O=C(Nc1cccn(Cc2c(Cl)cccc2Cl)c1=O)c1c(Cl)cccc1Cl | inactive: -32.8% | 
77 | COc1ccc(Cn2cc(C(=O)c3ccc(C)c(C)c3)c(=O)c3ccccc32)cc1 | inactive: -34.1% | 
78 | O=C(O)c1ccc(N/N=C/c2ccc3ncccc3c2)cc1 | -60% | 
79 | CCOC(=O)CSC1=C(C#N)C(c2ccco2)C(C(=O)OCc2ccccc2)=C(C)N1 (centres undefined) | 31.1% | 
80 | COC(=O)c1ccc(C(NC(=O)c2ccco2)[C@]2(C)C[C@H]2C2CCCCC2)cc1 (some centres undefined) | inactive: -32.9% | 
81 | CCOC(=O)c1sc(/N=C/Nc2nc(C)c(C(=O)OCC)s2)nc1C | 47.7% | 
82 | O=C(Nc1ccc(N2CCN(C(=O)c3ccc(Cl)cc3)CC2)cc1)c1ccc2c(c1)OCCO2 | inactive: -65.5% | 
83 | O=C(NCCCN1CCOCC1)C1(c2ccccc2)CCCC1 | 31.2% | 
84 | Cc1sc(NC(=O)c2ccco2)nc1-c1ccc2c(c1)CC(C)N2C(=O)C1CC1 (centres undefined) | inactive: -37.6% | 
85 | O=S(=O)(c1ccc2c(c1)OCCO2)N1CCN(c2cccc(Cl)c2)CC1 | -41.5% | 
86 | CCn1c(-c2ccc(N(C)C)cc2)nc2ccccc21 |  | active: 12.6 µM
87 | S=C1NC=NC2N=CNC12 (centres undefined) | inactive: -37.9% | 
88 | Cc1nn(-c2ccccc2)c(N2CCCC2)c1/C=N/NC(=O)c1cc2ccccc2cc1O | -53.6% | 

Row | SMILES | activity change, positive = activation | Potency
89 | O=c1c(-c2ccccc2)nc2cncnc2n1Cc1ccc(F)cc1 | inactive: -53.4% | 
90 | COc1ccc(O)c(/C=N/NC(=O)c2ccc(OCc3cccc(Br)c3)cc2)c1 | inactive: -78.8% | 
91 | Cc1nnc(SCc2nc3ccccc3s2)n1N | 111% | 
92 | CCOC(=O)CSc1ccc(-c2nc3ccccc3[nH]2)cn1 | 36.2% | 
93 | Nc1ncc2c(n1)-c1ccccc1CC2 | 34.1% | 
94 | O=C(NCCCc1ccccc1)c1nn(-c2ccccc2)nc1CO | inactive: -33.7% | 
95 | CCN(CC)c1nc(-c2ccccn2)nc(-c2ccccc2)c1C#N | inactive: -80.7% | 
96 | O=C(Nc1nc2c(Cl)cccc2s1)c1ccc(Br)o1 | 34.4% | 
97 | Cc1cccc(CCNC(=O)CCCOc2cc(=O)n(C)c3ccccc23)c1 | -4.07% | 
98 | Cc1cc(NCc2ccc(Cl)cc2)n2cnnc2n1 | inactive: -51.3% | 
99 | O=C(Nc1ccc(S(=O)(=O)N2CCCCC2)cc1)c1cnccn1 | inactive: -45.6% | 
100 | CC[n+]1ccccc1/C=C/c1ccc(N(C)C)cc1 | inactive: -54.5% | 
101 | COc1ccc(C2C(C(=O)N3CCOCC3)=C(C)NC3=C2C(=O)CC(C)(C)C3)cc1O (centres undefined) | 50.5% | 
102 | Cc1ccc(NC(=O)Cc2ccccc2Cl)cc1S(=O)(=O)N(C)C | -40.7% | 
103 | O=C(CCl)Nc1cc(SCC(O)CO)cc([N+](=O)[O-])c1 (centres undefined) | inactive: -105% | 
104 | CCc1ccc(NC(=O)Cn2c(=O)n(CCCC(=O)NCc3ccccc3Cl)c(=O)c3ccccc32)cc1 | 38.5% | 
105 | O=C(COC(=O)c1cc(-c2cccc(Br)c2)nc2ccccc12)NCC1CCCO1 (centres undefined) | 117% | 
106 | COc1ccccc1-c1nnc(C2CCN(S(=O)(=O)c3ccc(CC(C)C)cc3)CC2)o1 | inactive: -36.1% | 
107 | N=c1n(CCN2CCCC2)c2ccccc2n1CC(O)c1ccco1 (centres undefined) | 31.1% | 
108 | COc1ccc(OC)c(NC(=O)CSc2nnc(N)s2)c1 | 41.7% | 
109 | O=C(c1ccco1)N1CCC2(CCN(Cc3cc(C(F)(F)F)cc(C(F)(F)F)c3)CC2)CC1 | -34.1% | 
